No constants are given. Whether binding was seen depends on the method and setting. In cells and extracts the contact can be indirect. Some results given as binding are weak or reduced against the parent protein; the word gives no strength. Where a sequence is shown, tags or fusion partners need not be part of it.
Molecular target: T1, 6×His Tag S.a-FnBpA protein (fibronectin binding protein FnBpA of Staphylococcus aureus) (S. aureus) (UniProt P14738)
T1 sequence: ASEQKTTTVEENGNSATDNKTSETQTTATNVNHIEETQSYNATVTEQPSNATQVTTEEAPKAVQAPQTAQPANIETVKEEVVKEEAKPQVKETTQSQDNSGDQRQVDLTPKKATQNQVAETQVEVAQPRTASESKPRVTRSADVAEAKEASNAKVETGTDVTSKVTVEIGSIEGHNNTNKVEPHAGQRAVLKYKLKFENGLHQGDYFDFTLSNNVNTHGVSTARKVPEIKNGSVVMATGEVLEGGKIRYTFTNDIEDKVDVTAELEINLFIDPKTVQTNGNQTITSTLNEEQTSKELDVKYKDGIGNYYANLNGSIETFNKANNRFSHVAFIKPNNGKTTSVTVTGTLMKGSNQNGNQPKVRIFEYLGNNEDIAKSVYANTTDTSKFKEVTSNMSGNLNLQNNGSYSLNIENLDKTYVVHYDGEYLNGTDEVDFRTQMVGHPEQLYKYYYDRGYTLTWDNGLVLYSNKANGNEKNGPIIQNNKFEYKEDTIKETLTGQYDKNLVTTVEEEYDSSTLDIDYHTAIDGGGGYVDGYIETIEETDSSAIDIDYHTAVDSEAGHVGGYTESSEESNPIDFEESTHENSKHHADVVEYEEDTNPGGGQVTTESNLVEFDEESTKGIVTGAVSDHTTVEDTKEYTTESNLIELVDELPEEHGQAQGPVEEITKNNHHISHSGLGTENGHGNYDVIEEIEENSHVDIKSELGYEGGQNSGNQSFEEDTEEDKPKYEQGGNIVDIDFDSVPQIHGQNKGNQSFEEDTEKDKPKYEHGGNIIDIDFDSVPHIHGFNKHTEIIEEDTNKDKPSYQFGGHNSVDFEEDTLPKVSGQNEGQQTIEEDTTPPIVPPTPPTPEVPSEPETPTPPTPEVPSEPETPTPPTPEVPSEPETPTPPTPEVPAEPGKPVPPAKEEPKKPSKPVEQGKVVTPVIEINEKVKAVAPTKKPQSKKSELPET
Experiment: pull-down; FnBps as bait, integrin α5 and β1 chains detected; with/without Fn protein; no further conditions told

Sequences of proteins named here, by UniProt entry; tags and fusion partners are left off. A change or cut given only in a name is not applied to a line headed by its entry.
UniProt P08648: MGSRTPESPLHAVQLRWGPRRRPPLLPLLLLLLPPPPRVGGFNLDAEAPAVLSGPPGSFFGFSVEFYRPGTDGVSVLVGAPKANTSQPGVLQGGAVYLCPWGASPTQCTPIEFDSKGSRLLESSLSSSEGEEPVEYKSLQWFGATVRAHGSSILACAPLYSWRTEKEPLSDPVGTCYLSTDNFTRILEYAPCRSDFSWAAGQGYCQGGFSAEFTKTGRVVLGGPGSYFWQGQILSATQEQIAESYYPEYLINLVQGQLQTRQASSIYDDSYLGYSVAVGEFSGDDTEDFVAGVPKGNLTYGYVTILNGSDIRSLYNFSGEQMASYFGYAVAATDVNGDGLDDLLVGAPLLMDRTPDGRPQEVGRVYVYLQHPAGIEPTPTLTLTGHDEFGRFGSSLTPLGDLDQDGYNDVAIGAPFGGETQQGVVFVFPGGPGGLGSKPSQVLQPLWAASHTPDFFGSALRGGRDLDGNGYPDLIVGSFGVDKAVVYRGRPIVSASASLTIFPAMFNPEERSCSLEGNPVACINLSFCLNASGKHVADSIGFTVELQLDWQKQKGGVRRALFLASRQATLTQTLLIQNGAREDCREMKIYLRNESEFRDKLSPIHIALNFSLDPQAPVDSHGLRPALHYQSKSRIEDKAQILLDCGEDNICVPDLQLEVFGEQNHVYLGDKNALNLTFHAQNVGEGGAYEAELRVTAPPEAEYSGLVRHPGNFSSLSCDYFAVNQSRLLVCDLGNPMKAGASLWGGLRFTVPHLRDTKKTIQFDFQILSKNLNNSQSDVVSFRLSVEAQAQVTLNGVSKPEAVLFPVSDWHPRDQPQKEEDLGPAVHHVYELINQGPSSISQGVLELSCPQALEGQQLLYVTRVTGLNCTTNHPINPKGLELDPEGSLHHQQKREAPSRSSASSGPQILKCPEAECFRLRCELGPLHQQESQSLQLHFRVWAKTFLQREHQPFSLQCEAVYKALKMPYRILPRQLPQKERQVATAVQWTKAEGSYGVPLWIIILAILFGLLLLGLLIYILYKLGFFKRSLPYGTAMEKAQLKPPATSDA

integrin α5β1 (from UniProt P08648 42-1049; P05556 21-798) (complex)
binding: binds

From PMC10803403
